# This continues a long series; more values of the same kind are listed elsewhere.
# Columns and labels:
# Format in all cases: cell-based
# Settings in all cases: U-87MG ATCC
# [1] = Inhibition of RTK/PI3K/AKT/mTOR signaling in human U87 cells assessed as down regulation of EXOG gene expression at cytotoxic IC50 measured after 48 hrs relative to control
# [2] = Inhibition of RTK/PI3K/AKT/mTOR signaling in human U87 cells assessed as down regulation of INO80D gene expression at cytotoxic IC50 measured after 48 hrs relative to control
# [3] = Inhibition of RTK/PI3K/AKT/mTOR signaling in human U87 cells assessed as down regulation of ZNF28 gene expression at cytotoxic IC50 measured after 48 hrs relative to control
# [4] = Inhibition of RTK/PI3K/AKT/mTOR signaling in human U87 cells assessed as up regulation of cyclin dependent kinase 10 gene expression at cytotoxic IC50 measured after 48 hrs relative to control
# [5] = Inhibition of RTK/PI3K/AKT/mTOR signaling in human U87 cells assessed as up regulation of ring finger protein 207 gene expression at cytotoxic IC50 measured after 48 hrs relative to control
# [6] = Inhibition of RTK/PI3K/AKT/mTOR signaling in human U87 cells assessed as up regulation of CNPY3 gene expression at cytotoxic IC50 measured after 48 hrs relative to control
# [7] = Inhibition of RTK/PI3K/AKT/mTOR signaling in human U87 cells assessed as down regulation of PIK3R4 gene expression at cytotoxic IC50 measured after 48 hrs relative to control
# [8] = Inhibition of RTK/PI3K/AKT/mTOR signaling in human U87 cells assessed as up regulation of EFHD2 gene expression at cytotoxic IC50 measured after 48 hrs relative to control
# [9] = Inhibition of RTK/PI3K/AKT/mTOR signaling in human U87 cells assessed as down regulation of XPO4 gene expression at cytotoxic IC50 measured after 48 hrs relative to control
# [10] = Inhibition of RTK/PI3K/AKT/mTOR signaling in human U87 cells assessed as up regulation of NME1 gene expression at cytotoxic IC50 measured after 48 hrs relative to control
# [11] = Inhibition of RTK/PI3K/AKT/mTOR signaling in human U87 cells assessed as down regulation of SMURF1 gene expression at cytotoxic IC50 measured after 48 hrs relative to control
# [12] = Inhibition of RTK/PI3K/AKT/mTOR signaling in human U87 cells assessed as down regulation of TOMM70 gene expression at cytotoxic IC50 measured after 48 hrs relative to control
# [13] = Inhibition of RTK/PI3K/AKT/mTOR signaling in human U87 cells assessed as down regulation of C9orf16 gene expression at cytotoxic IC50 measured after 48 hrs relative to control
# [14] = Inhibition of RTK/PI3K/AKT/mTOR signaling in human U87 cells assessed as up regulation of lectin, mannose binding 1 gene expression at cytotoxic IC50 measured after 48 hrs relative to control
# [15] = Inhibition of RTK/PI3K/AKT/mTOR signaling in human U87 cells assessed as up regulation of kaptin, actin binding protein gene expression at cytotoxic IC50 measured after 48 hrs relative to control
# [16] = Inhibition of RTK/PI3K/AKT/mTOR signaling in human U87 cells assessed as up regulation of SH2D3A gene expression at cytotoxic IC50 measured after 48 hrs relative to control
# [17] = Inhibition of RTK/PI3K/AKT/mTOR signaling in human U87 cells assessed as down regulation of RPA3 gene expression at cytotoxic IC50 measured after 48 hrs relative to control
# [18] = Inhibition of RTK/PI3K/AKT/mTOR signaling in human U87 cells assessed as down regulation of SPTAN1 gene expression at cytotoxic IC50 measured after 48 hrs relative to control
# [19] = Inhibition of RTK/PI3K/AKT/mTOR signaling in human U87 cells assessed as up regulation of ASXL1 gene expression at cytotoxic IC50 measured after 48 hrs relative to control
# [20] = Inhibition of RTK/PI3K/AKT/mTOR signaling in human U87 cells assessed as down regulation of NUP214 gene expression at cytotoxic IC50 measured after 48 hrs relative to control
# [21] = Inhibition of RTK/PI3K/AKT/mTOR signaling in human U87 cells assessed as up regulation of transmembrane protein 67 gene expression at cytotoxic IC50 measured after 48 hrs relative to control
# [22] = Inhibition of RTK/PI3K/AKT/mTOR signaling in human U87 cells assessed as up regulation of transducin beta like 2 gene expression at cytotoxic IC50 measured after 48 hrs relative to control
# [23] = Inhibition of RTK/PI3K/AKT/mTOR signaling in human U87 cells assessed as down regulation of ATP13A2 gene expression at cytotoxic IC50 measured after 48 hrs relative to control
# [24] = Inhibition of RTK/PI3K/AKT/mTOR signaling in human U87 cells assessed as down regulation of TGOLN2 gene expression at cytotoxic IC50 measured after 48 hrs relative to control
# [25] = Inhibition of RTK/PI3K/AKT/mTOR signaling in human U87 cells assessed as up regulation of SYNPO gene expression at cytotoxic IC50 measured after 48 hrs relative to control
# [26] = Inhibition of RTK/PI3K/AKT/mTOR signaling in human U87 cells assessed as down regulation of PIKFYVE gene expression at cytotoxic IC50 measured after 48 hrs relative to control
# [27] = Inhibition of RTK/PI3K/AKT/mTOR signaling in human U87 cells assessed as up regulation of SCNN1A gene expression at cytotoxic IC50 measured after 48 hrs relative to control
# [28] = Inhibition of RTK/PI3K/AKT/mTOR signaling in human U87 cells assessed as down regulation of BARD1 gene expression at cytotoxic IC50 measured after 48 hrs relative to control
# [29] = Inhibition of RTK/PI3K/AKT/mTOR signaling in human U87 cells assessed as down regulation of B4GALT5 gene expression at cytotoxic IC50 measured after 48 hrs relative to control
# [30] = Inhibition of RTK/PI3K/AKT/mTOR signaling in human U87 cells assessed as up regulation of RALBP1 associated Eps domain containing 2 gene expression at cytotoxic IC50 measured after 48 hrs relative to control
# [31] = Inhibition of RTK/PI3K/AKT/mTOR signaling in human U87 cells assessed as up regulation of topoisomerase (DNA) I gene expression at cytotoxic IC50 measured after 48 hrs relative to control
# [32] = Inhibition of RTK/PI3K/AKT/mTOR signaling in human U87 cells assessed as down regulation of GADD45G gene expression at cytotoxic IC50 measured after 48 hrs relative to control
smiles,measurement,setting,value
CC(=O)C(=NNc1ccccc1C#N)C(C)=O,log2FC,[1],-1.72
same,log2FC,[2],-0.956
same,log2FC,[3],-0.975
same,log2FC,[4],0.768
same,log2FC,[5],1.17
same,log2FC,[6],1.58
same,log2FC,[7],-0.775
same,log2FC,[8],1.77
same,log2FC,[9],-0.617
same,log2FC,[10],0.465
same,log2FC,[11],-0.651
same,log2FC,[12],-0.617
same,log2FC,[13],-0.718
same,log2FC,[14],0.84
same,log2FC,[15],1.2
same,log2FC,[16],0.548
same,log2FC,[17],-0.868
same,log2FC,[18],-0.95
same,log2FC,[19],0.612
same,log2FC,[20],-0.573
same,log2FC,[21],1.19
same,log2FC,[22],0.72
same,log2FC,[23],-0.602
same,log2FC,[24],-0.647
same,log2FC,[25],1.74
same,log2FC,[26],-0.618
same,log2FC,[27],2.28
same,log2FC,[28],-1.35
same,log2FC,[29],-0.574
same,log2FC,[30],1.11
same,log2FC,[31],0.829
same,log2FC,[32],-4.43
